Experimental data published in PMC5141650.
No constants are given. Whether binding was seen depends on the method and setting. Some entries that bind do so weakly or less than the wild type.

T1: NIPI-3 (No induction of peptide after Drechmeria infection 3), full length (C. elegans) (UniProt G5EED4)
T1 sequence: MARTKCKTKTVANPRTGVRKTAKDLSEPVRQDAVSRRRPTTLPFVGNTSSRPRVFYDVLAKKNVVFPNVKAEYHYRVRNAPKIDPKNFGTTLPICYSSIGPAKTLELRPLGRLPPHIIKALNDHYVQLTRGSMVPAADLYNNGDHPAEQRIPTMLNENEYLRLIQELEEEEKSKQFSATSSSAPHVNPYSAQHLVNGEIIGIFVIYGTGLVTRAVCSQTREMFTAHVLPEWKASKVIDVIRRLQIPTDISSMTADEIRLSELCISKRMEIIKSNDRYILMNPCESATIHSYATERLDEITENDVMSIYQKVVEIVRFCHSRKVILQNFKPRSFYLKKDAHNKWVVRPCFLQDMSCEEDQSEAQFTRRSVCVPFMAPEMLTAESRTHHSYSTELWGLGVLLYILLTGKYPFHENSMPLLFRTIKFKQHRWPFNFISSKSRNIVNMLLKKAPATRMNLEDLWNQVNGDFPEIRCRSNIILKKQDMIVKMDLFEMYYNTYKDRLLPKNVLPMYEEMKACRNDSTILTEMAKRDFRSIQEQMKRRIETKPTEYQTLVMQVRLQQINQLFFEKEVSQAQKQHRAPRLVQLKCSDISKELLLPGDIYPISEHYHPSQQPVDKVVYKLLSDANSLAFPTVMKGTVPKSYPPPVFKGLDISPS


How the values were obtained:
[1] = target: T1, NIPI-3 (No induction of peptide after Drechmeria infection 3), full length (C. elegans); experiment: two-hybrid; CEBP-1 variants fused to the Gal4 activation domain (pACT2), full-length NIPI-3 fused to the LexA DNA-binding domain (pBTM116); co-transformed into yeast strain L40; interaction read as growth on SD medium lacking leucine, tryptophan and histidine
[2] = target: T1, NIPI-3 (No induction of peptide after Drechmeria infection 3), full length (C. elegans); experiment: two-hybrid; yeast two-hybrid screen with the full-length NIPI-3 protein as bait; library and conditions not described

Row | binding [1] | binding [2] | Binder
1 | binds |  | CEBP-1 N-terminal region (amino acids 1-115) (domain or fragment, UniProt Q18909 1-115) MYSKLNYSHQKGDQALKHPHLVRLQQSEVRGFTDMPNNGASTSSAGSFARQDSLTIAASLQQRDRERHPVDFMETELDLGDYLQVLHDLDVPTDNVDFDDAELQKCNILYDGEHP
2 |  | binds | CEBP-1 (protein, UniProt Q18909 1-319) MYSKLNYSHQKGDQALKHPHLVRLQQSEVRGFTDMPNNGASTSSAGSFARQDSLTIAASLQQRDRERHPVDFMETELDLGDYLQVLHDLDVPTDNVDFDDAELQKCNILYDGEHPYEQPELNGYERHVAYGTGYRVPGDYDQDGYKMNCEVKAETPDFGATKTRRAVKRPVPYDDYQKEYSEESSDMTDNDGSVDDSYFEPKSKKTKSAGLENFKPQTRARKYKLKADEEKAEPTYKLKRARNNDAVRKSRKKAKELQDKKEAEHDKMKRRIAELEGLLQSERDARRRDQDTLEQLLRNKGPMKEQRMPQRHILENFNK
